For at least one entry, the source does not settle the construct or the ends of the probe. At least one verdict rests on a figure or table, not on a statement of the authors.
Biological target: HuR-cMycHis (UniProt Q15717)
Assay: AlphaScreen
Conditions: 1-3 nM HuR, 50 nM RNA, binding not affected by EGCG or TFMG; REMSA: 20 mM HEPES pH 7.5, 50 mM KCl, 0.5 ug BSA, 0.25% glycerol, room temperature, 1 h; AlphaScreen: dialysis buffer; recombinant protein; protein details: cMyc-His; label: 5'-biotin

Amino acid sequences for entries named in this document (tags omitted).
UniProt Q15717, whole entry: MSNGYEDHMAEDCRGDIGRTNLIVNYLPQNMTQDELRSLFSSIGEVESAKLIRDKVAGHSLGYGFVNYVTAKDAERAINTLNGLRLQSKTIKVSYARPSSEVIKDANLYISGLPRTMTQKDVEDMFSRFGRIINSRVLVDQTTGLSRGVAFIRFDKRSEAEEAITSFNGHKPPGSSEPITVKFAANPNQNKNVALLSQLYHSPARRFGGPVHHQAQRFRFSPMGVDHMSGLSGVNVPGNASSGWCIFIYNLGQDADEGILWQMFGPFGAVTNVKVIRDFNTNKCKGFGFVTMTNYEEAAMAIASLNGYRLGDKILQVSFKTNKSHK

“AUUAUUUAUUAUUUAUUUAUUAUUUA [BiTNF (TNFalpha AU-rich element)]”: binds.
